A short description of the data set: Boc solid-phase peptide synthesis; MBHA resin; DIC/HOBt. The note with it: whole synthesis, scale of the general procedure 100 mg resin.

For “Ac-Nle-Gln-His-(D)Phe-Arg-(D)Trp-Gly-NH2”, the “crude purity (method not given)” value is recorded as “approximately 80 to 90% pure”.

Values taken from patent US6534503B1 (Lion Bioscience AG, priority 1998, dated 2003).
